Reference: PubChem BioAssay AID2685 (National Center for Advancing Translational Sciences (NCATS), 2010)
This is one part of the list. Shown are side measurements of this screen, not its main read-out; they come without a call. Compounds called inactive in the main read-out are mostly missing here. Potencies come from curve fits of mixed quality, noted in brackets.

Experiment: qHTS Assay for Lipid Storage Modulators in Drosophila S3 Cells;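 as to cell number change: cells counted by Cell Tracker Red CMTPX staining in the red channel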
Conditions: BODIPY lipid droplet fluorescence, 18-24 h; for cell number change: measured here: cell count max response, cells fed with added oleic acid
Procedure, shortened: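 Laser-scanning cytometry quantifies lipid droplet accumulation (500–530 nm total intensity; droplet/cell object ratio) in oleic acid-fed (400 uM added) Drosophila S3 cells treated with a concentration series. 20 uM Triacsin C defined 100% inhibition.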

[1] = measured here: cell number channel AC50, cells fed with added oleic acid
[2] = measured here: lipid fluorescence (Fed channel) AC50, cells fed with added oleic acid

Row | SMILES | AC50 [1] | AC50 [2] | cell number change [%]
1 | Fc1ccc(CSc2nncn2NCc2ccc3c(c2)OCO3)cc1 | 2.06 µM [rising, partial curve] | 1.84 µM [rising, partial curve] | 
2 | COCCn1c(SCC(=O)NC2CCCC2)nnc1C(C)C |  | 0.58 µM [falling, single point] | 16.2
3 | CN(C)S(=O)(=O)c1ccc(C(=O)NCCOc2ccc(F)cc2)cc1 |  | 7.31 µM [falling, single point] | 
4 | OC(COc1ccc(Cl)cc1)CN1CCCCC1 (stereo not given) |  | 0.517 µM [falling, full curve] | 9.73
5 | Cc1ccc(C(C(=O)NC2CCCCC2)N(Cc2ccco2)C(=O)C2COc3ccccc3O2)o1 (stereo not given) |  | 29.1 µM [falling, single point] | -13.1
6 | CN1/C(=C\C(=S)NC(=O)c2ccc([N+](=O)[O-])cc2)C(C)(C)c2ccccc21 |  | 20.6 µM [falling, single point] | -22.5
7 | CC1CCN(S(=O)(=O)c2ccc(NC(=O)CN3CCN(C)CC3)cc2)CC1 |  | 4.61 µM [falling, full curve] | -17.4
8 | Cc1ccc(Cn2nnc3c(=O)[nH]c(C4CCN(S(=O)(=O)c5ccc(C)cc5)CC4)nc32)cc1 | 16.4 µM [rising, partial curve] |  | 163
9 | COc1ccc(-c2nc(SC(CC(=O)NCCN3CCOCC3)c3cccs3)n[nH]2)cc1 (stereo not given) |  |  | -13.8
10 | O=[N+]([O-])c1ccc(O)c(/C=N/n2c(CO)nc3ccccc32)c1 | 6.51 µM [falling, single point] |  | 14.4
11 | CN(C)S(=O)(=O)c1ccc2c(c1)/C(=C/c1cc3c([nH]1)CCCC3)C(=O)N2 |  | 6.51 µM [falling, single point] | 
12 | Cc1cccc(N2C(=S)NC3c4cc(Cl)ccc4OC2(C)C3C(=O)N(C)C)c1 (stereo not given) | 0.184 µM [rising, full curve, poor fit] | 0.58 µM [rising, single point] | 
13 | CCCn1c(=N)c(S(=O)(=O)c2ccc(F)cc2)cc2c(=O)n3ccccc3nc21 |  | 6.51 µM [falling, single point] | -8.96
14 | CCOc1ccc(CN(C)c2ccc(S(=O)(=O)N3CCN(C)CC3)cc2[N+](=O)[O-])cc1OC |  | 6.51 µM [falling, single point] | -10.6
15 | CCOCc1cc(CN2CCCC(CNC(=O)c3ccco3)C2)ccc1OC (stereo not given) |  | 11.6 µM [rising, partial curve] | 4.72
16 | COc1ccc(-c2nc(C)sc2C)cc1 |  | 8.2 µM [rising, partial curve] | 28.9
17 | CSC1=NCCN1C(=O)COc1ccccc1 | 25.9 µM [falling, single point] |  | -47.1
18 | Cn1nc(-c2ccccc2)c(CO)c1Oc1ccc(F)cc1 | 0.184 µM [rising, full curve] |  | 2.6

Row | SMILES | AC50 [1] | AC50 [2] | cell number change [%]
19 | Cc1cccc(C(=O)OC(C)C(=O)N2CCN(Cc3ccccc3)CC2)c1 (stereo not given) | 18.4 µM [rising, single point] | 23.1 µM [rising, partial curve] | 217
20 | COc1ccc(C)cc1N1CC(C(=O)Nc2ccccc2N2CCCCC2)CC1=O (stereo not given) |  | 0.82 µM [falling, full curve] | 
21 | C=CCc1cccc(/C=N/NC(=O)CNc2ccccc2)c1O | 14.6 µM [falling, partial curve] | 14.6 µM [rising, partial curve, poor fit] | -59.6
22 | O=C(C1=NN[C@@H]2C(=O)N(c3ccccc3C(F)(F)F)C(=O)[C@H]12)c1cnccn1 |  |  | 41.3
23 | CC(c1ccco1)N(C(=O)CSc1ccc(Br)cc1)c1ccccn1 (stereo not given) |  | 0.103 µM [falling, full curve, poor fit] | 9.46
24 | CC1(C)CC(=O)C2=C(C1)NC1=C(C(=O)c3ccccc31)C2c1ccc(Cl)cc1 (stereo not given) | 18.4 µM [rising, single point] |  | 33.3
25 | COc1ccc(CCn2c(C)cc3c(c2=O)C(c2ccncc2)C(C#N)=C(N)O3)cc1OC (stereo not given) | 32.6 µM [rising, partial curve, poor fit] | 0.517 µM [rising, partial curve, poor fit] | 48.7
26 | Cc1ccc(C(NC(=O)NC(C)c2ccccc2)C(Cl)(Cl)Cl)cc1F (stereo not given) | 18.4 µM [falling, single point] | 18.4 µM [falling, single point] | -39.9
27 | Cc1ccc(C)c(S(=O)(=O)NC(C)CCc2ccccc2)c1 (stereo not given) |  | 5.62 µM [rising, single point] | 9.21
28 | C[C@H](NC(=O)c1[nH]cnc1C(=O)Nc1ccc(CNC(=O)OC(C)(C)C)cc1)C(=O)OCc1ccccc1 |  | 29.1 µM [falling, single point] | -6.09
29 | CCN1C(=O)/C(=C\c2nc3ccccc3c(=O)n2CC)c2ccccc21 |  | 20.6 µM [falling, single point] | -37.5
30 | CCOC(=O)C1(CC2CCCCO2)CCN(Cc2cc(F)ccc2-n2cccn2)CC1 (stereo not given) |  | 1.46 µM [falling, partial curve, poor fit] | 16.8
31 | COC(=O)CCCC1=CC2=C(c3ccccc3)C(=O)C(C)(OC(=O)C3CCCC3)C(=O)C2=CN1C1CCCCC1 (stereo not given) |  | 6.51 µM [falling, single point] | 
32 | Cc1cccc(NC(=O)c2sc3nc4c(c(-c5ccco5)c3c2N)CCC4)c1 |  | 0.092 µM [rising, full curve, poor fit] | 14
33 | CCOc1ccc(S(=O)(=O)Nc2ccccc2C(=O)NCC2CCCO2)cc1 (stereo not given) | 25.9 µM [rising, partial curve] |  | 63.5
34 | CCCCc1c(O)nc2n(c1=O)CCS2 | 6.51 µM [falling, single point] |  | 
35 | Cc1cc2c(cc1S(=O)(=O)NC1CCCCC1C)OCC(=O)N2 (stereo not given) |  | 0.731 µM [falling, partial curve, poor fit] | -18.6
36 | CC(=O)N1CCN(c2cc3c(cc2F)c(=O)c(C(=O)O)cn3C2CC2)CC1 | 7.31 µM [falling, partial curve] | 6.51 µM [falling, partial curve] | -30.4

From no. 34 up to 35, copied from above:
Row | SMILES | AC50 [1] | AC50 [2] | cell number change [%]
34 | CCCCc1c(O)nc2n(c1=O)CCS2 | 6.51 µM [falling, single point] |  | 
35 | Cc1cc2c(cc1S(=O)(=O)NC1CCCCC1C)OCC(=O)N2 (stereo not given) |  | 0.731 µM [falling, partial curve, poor fit] | -18.6
